Literature values in patent US10259815B2, “Gabaergic ligands and their uses” (UWM Research Foundation, Inc., priority 2015, dated 2019).

Chains of the proteins cited; added tags and fusions are not shown. Residues count along the entry.
UniProt P18507, 40-475: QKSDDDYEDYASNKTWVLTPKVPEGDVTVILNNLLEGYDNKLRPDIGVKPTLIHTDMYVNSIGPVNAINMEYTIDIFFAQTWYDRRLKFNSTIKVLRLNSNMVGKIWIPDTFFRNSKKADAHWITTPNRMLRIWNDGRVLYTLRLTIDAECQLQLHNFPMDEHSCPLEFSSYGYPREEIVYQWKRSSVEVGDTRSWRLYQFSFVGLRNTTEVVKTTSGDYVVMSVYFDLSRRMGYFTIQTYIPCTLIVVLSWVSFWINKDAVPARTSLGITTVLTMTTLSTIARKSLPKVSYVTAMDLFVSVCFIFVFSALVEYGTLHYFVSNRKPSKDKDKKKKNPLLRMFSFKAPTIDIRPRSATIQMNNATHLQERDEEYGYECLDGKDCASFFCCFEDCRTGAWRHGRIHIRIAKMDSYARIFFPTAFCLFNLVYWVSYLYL
UniProt P31644, 32-462: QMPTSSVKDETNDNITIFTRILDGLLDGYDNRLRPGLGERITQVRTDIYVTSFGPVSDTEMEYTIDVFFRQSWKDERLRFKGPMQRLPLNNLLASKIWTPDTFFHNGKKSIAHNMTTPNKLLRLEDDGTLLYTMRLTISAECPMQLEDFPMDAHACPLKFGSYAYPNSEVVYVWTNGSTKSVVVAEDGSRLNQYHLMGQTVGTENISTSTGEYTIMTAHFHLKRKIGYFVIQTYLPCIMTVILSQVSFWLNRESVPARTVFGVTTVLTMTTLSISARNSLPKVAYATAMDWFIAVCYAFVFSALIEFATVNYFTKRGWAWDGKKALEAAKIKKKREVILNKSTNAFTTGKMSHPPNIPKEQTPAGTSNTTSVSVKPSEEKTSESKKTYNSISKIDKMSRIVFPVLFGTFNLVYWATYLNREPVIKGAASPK

Target: GABAA/α5 receptors (Homo sapiens, UniProt P18507+P31644)
Conditions: read-out: Ki, GABAA/α5 receptors; as disclosed in Huang, et al., J. Med. Chem. 2000; cited from earlier work

Structure (SMILES): CN1C(=O)CN=C(c2ccccc2)c2cc(Cl)ccc21 [diazepam]
- Ki: < 25 nM
